Reference: patent US9234001B2, “Cysteine-free efficient Technetium (Tc) or Rhenium (Re) chelating peptide tags and their use” (Commissariat a L'Energie Atomique et aux Energies …, priority 2008, dated 2016)

Assay: [TcO]3+ labelling of peptides and proteins with protocol 2, labelling yield by HPLC
Conditions: 99(m+g)Tc labelling
[1] = UBI-29-41 fragments and their analogs
[2] = (1-R1/R2) with caffeine internal reference, UBI 29-41 and analogs

Row | Substance | Labelling Yield [1] [%] | Labelling Yield [2] [%] | other results
1 | AcRRRGT (retro-inverso D-amino acids, N-acetyl, C-amide; Peptide P15) | 75 | – | –
2 | P5: Ac-T-G-R-A-K-R-Nva-NH2, residue R7 replaced by a Norvaline | 63 | – | –
3 | SEQ ID NO: 2: analog of UBI 29-41, residue T1 replaced by an aminobutyric acid residue | – | 34 | –
4 | SEQ ID NO: 3: analog of UBI 29-41, Arginine 3 replaced by Norvaline | – | – | Labelling Yield ((1-R1/R2) with caffeine internal reference, UBI 29-41 and analogs, listed as 3): 78%
5 | SEQ ID NO: 4: analog of UBI 29-41, residue K5 replaced by a Norleucine residue | – | 86 | –
6 | SEQ ID NO: 5: analog of UBI 29-41, Arginine 6 replaced by Norvaline | – | 87 | –
7 | SEQ ID NO: 6: analog of UBI 29-41, R7 replaced by a Norvaline | – | 84 | –
8 | SEQ ID NO: 7: analog of UBI 29-41, Methionine 8 replaced by Norleucine | – | 92 | –
9 | SEQ ID NO: 8: analog of UBI 29-41, Q9 replaced by Amino butyric acid | – | 88 | –
10 | SEQ ID NO: 10: analog of UBI 29-41, Asparagine 11 replaced by Amino butyric acid | – | 91 | –
11 | SEQ ID NO: 11: analog of UBI 29-41, Arginine 12 replaced by Norvaline | – | 95 | –
12 | SEQ ID NO: 12: analog of UBI 29-41, Arginine 13 replaced by Norvaline | – | 93 | –
13 | TGRA (N-acetyl, C-amide; Peptide Fragment) [P1, Ac-TGRA-NH2] | 11 | – | –
14 | TGRAAR (N-acetyl, C-amide; Peptide Fragment) [P7, Ac-TGRAAR-NH2] | 19 | – | –
15 | TGRAKR (N-acetyl, C-amide; Peptide Fragment) [P3, Ac-TGRAKR-NH2] | 67 | – | –
16 | TGRAKRR (N-acetyl, C-amide; Peptide Fragment) [P4, Ac-TGRAKRR-NH2] | 71 | – | –
17 | TGRAKRRMQYNRR (N-acetyl, C-amide; UBI 29-41) [SEQ ID NO: 1, N-acetylated, C-amidated tridecamer, residue 29 to 41 of the protein Ubiquicidine, reference compound] | – | – | Labelling Yield ((1-R1/R2) with caffeine internal reference, UBI 29-41 and analogs, listed as 1): 79%; Labelling Yield ((1-R1/R2) with caffeine internal reference, UBI 29-41 and analogs, listed as UBI 29-41): 79%
18 | TGRAKRRMQYNRR (Peptide Fragment; Free N-terminus; Free C-terminus) [SEQ ID NO: 13, non-acetylated version of UBI 29-41, free N-terminus, CO2 C-terminus] | – | >95 | –
19 | TGRARR (N-acetyl, C-amide; Peptide Fragment) [P6, Ac-TGRARR-NH2] | 86 | – | –
20 | TGRRR [P9] (N-acetyl, C-amide; Peptide Fragment) [Ac-TGRRR-NH2] | 68 | – | –
21 | TGRRR [P14] (N-acetyl; Peptide Fragment; Free C-terminus) [Ac-TGRRR-CO2, free carboxyl terminal group] | 56 | – | –
